Consider two substances from doi:10.1101/2022.12.19.520972 (bioRxiv, 2022).

Protein sequences, listed by entry. Tags and fused reporters are not part of them. Residues count along the entry.
PEX13 SH3-CTR (261-403) (Q92968, residues 261-403): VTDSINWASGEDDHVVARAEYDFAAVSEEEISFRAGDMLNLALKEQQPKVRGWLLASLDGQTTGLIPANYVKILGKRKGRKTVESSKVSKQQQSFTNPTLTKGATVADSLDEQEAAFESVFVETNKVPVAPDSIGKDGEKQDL
PEX13 SH3 (261-346) (Q92968, residues 261-346): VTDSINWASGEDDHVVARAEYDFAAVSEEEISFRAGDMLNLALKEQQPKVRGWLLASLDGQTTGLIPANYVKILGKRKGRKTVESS
UniProt O75381, residues 1-113: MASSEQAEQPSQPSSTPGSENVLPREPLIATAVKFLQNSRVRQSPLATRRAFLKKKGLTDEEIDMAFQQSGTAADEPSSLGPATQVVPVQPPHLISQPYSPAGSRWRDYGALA

Assay [1] addresses PEX13 SH3 (261-346) (human) (UniProt Q92968). As to the kind of experiment: NMR titration.
The target in assay [2] is PEX13 SH3-CTR (261-403) (human) (UniProt Q92968). Briefly: SEC-SLS.

These are yes or no findings as the source states them, for the method shown.

Regarding “PEX14 NTD_(long) (1-113) (from UniProt O75381 1-113) (domain or fragment)”, the binding result in assay [1] is given as “no binding (tested: 4x excess)”.
As to “PEX13 SH3-CTR (261-403) (from UniProt Q92968 261-403) (domain or fragment)”, in assay [2], the binding result is listed as “no binding (tested: 2 mg/ml)”.
